Data as given in PMC3359313.
No constants are given. Whether binding was seen depends on the method and setting. In cells and extracts the contact can be indirect. Some entries that bind do so weakly or less than the wild type.

Sequences of proteins named here, by UniProt entry; tags and fusion partners are left off. A change or cut given only in a name is not applied to a line headed by its entry.
UniProt P61586: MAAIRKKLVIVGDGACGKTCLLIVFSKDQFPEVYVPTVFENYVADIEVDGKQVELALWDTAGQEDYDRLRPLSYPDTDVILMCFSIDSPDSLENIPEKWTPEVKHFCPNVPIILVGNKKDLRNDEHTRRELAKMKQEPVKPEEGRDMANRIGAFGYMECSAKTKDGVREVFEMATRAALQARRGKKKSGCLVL
UniProt P97433: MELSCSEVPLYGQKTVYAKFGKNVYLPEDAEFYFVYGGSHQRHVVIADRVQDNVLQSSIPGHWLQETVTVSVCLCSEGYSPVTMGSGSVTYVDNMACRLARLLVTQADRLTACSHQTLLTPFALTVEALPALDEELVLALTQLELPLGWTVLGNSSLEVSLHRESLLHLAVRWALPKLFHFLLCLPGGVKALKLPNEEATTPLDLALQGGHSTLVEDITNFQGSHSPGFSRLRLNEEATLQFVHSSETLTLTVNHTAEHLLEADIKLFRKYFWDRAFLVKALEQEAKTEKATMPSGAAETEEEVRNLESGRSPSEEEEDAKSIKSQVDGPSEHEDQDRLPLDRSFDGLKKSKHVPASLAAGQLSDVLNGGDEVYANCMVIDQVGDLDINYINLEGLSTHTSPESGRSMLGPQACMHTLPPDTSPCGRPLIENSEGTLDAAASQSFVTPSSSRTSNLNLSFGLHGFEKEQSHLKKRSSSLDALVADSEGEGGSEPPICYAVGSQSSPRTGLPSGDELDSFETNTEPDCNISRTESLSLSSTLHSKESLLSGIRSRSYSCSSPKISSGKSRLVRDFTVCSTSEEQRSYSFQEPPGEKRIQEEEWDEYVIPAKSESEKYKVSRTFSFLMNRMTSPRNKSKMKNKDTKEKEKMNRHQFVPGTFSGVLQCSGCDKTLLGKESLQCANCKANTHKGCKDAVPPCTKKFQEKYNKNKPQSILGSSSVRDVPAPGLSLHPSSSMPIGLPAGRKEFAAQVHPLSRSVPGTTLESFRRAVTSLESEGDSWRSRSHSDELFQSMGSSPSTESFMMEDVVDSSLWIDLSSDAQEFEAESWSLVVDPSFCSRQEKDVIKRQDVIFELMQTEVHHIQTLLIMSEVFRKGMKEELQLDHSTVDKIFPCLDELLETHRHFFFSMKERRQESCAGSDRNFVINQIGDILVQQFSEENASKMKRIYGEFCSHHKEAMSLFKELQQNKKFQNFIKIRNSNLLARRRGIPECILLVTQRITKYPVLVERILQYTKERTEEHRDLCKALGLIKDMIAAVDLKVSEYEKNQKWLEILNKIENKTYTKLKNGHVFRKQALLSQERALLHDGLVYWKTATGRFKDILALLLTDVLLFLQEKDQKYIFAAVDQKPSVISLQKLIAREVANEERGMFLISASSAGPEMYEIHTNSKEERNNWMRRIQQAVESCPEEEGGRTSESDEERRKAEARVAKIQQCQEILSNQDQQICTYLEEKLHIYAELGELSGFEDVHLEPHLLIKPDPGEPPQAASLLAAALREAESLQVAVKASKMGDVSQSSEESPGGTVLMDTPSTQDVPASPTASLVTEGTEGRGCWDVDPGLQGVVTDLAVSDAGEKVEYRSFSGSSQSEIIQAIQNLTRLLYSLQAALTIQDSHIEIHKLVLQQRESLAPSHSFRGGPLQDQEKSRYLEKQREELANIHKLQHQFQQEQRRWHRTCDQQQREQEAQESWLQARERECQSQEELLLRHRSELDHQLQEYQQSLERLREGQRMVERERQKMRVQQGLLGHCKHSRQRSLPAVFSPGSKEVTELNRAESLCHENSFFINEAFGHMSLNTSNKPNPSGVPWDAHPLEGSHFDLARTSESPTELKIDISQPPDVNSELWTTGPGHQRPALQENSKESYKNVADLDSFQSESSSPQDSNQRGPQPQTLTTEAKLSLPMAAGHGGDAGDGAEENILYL

Target: GST-RhoA (G17A) (UniProt P61586)
Assay: pull-down; 20 ug GST-RhoA G17A bound to glutathione agarose, 60 min at 4 C, with lysates of normal MEFs held in suspension and then replated onto 10 ug/ml fibronectin for 30 to 120 min; bound Rgnef detected by immunoblotting; only the target purified

binding: binds
Substance: Rgnef (p190RhoGEF) (from UniProt P97433 1-1700)
